Results as given in PubChem BioAssay AID330 (DTP/NCI, 2004).
The list shows only some results of the screen, not a fair sample: it is rich in T/C values a quarter to a half above the control, in often repeated tests (any T/C) and in doses without a T/C. Further doses and runs are listed elsewhere. T/C gives the treated animals as a percentage of the vehicle group. Some doses have a count of surviving animals in place of a T/C: the source holds a T/C of zero for them, seemingly a mark for toxic or unscored doses. Some doses without a T/C left all or most animals alive at the check, yet need not have been tolerated: survival well below the control is almost never listed, so the zero probably covers shortened survival too. Survivors were counted at the toxicity check, usually on the fifth day, unless a day is given; later deaths do not show. Schedule codes are those of the source, read here as Q, the interval in days (D) or hours (H), X, the number of doses. Some structures stand for samples that the source files as different forms (salt, stereo form or complex); doses refer to the form tested. For survival time, this PubChem deposit counts one and a half times the control or more as active, and values a quarter to a half above the control carry no call in these data; other NCI protocols may use other cut-offs. Some entries were tested several times; the values are given in rising order. Some T/C values are followed by the survivors on the day toxicity was checked, most often the fifth; where none is given, no animal had died by that day.

System: P388 leukemia ip, CD2F1 mice, survival T/C
Experiment: NCI In Vivo Anticancer Drug Screen. Data for tumor model P388 Leukemia (intraperitoneal) in CD2F1 (CDF1) mice
Conditions: T/C endpoint: median survival time, higher T/C = longer survival
[1] = dose: 60.0 mg/kg/injection, schedule: Q01DX005 (ip), vehicle: saline with Tween-80
[2] = dose: 120.0 mg/kg/injection, schedule: Q01DX005 (ip), vehicle: saline with Tween-80
[3] = dose: 240.0 mg/kg/injection, schedule: Q01DX005 (ip), vehicle: saline with Tween-80
[4] = dose: 50.0 mg/kg/injection, schedule: Q01DX005 (ip), vehicle: saline with Tween-80
[5] = dose: 100.0 mg/kg/injection, schedule: Q01DX005 (ip), vehicle: saline with Tween-80
[6] = dose: 200.0 mg/kg/injection, schedule: Q01DX005 (ip), vehicle: saline with Tween-80
[7] = dose: 200.0 mg/kg/injection, schedule: Q01DX005 (ip), vehicle: Klucel (hydroxypropylcellulose) (HPC)
[8] = dose: 100.0 mg/kg/injection, schedule: Q01DX005 (ip), vehicle: Klucel (hydroxypropylcellulose) (HPC)
[9] = dose: 100.0 mg/kg/injection, schedule: Q04DX003 (ip), vehicle: saline with Tween-80
[10] = dose: 200.0 mg/kg/injection, schedule: Q04DX003 (ip), vehicle: saline with Tween-80
[11] = dose: 400.0 mg/kg/injection, schedule: Q04DX003 (ip), vehicle: saline with Tween-80
[12] = dose: 100.0 mg/kg/injection, schedule: Q01DX009 (ip), vehicle: saline with Tween-80
[13] = dose: 200.0 mg/kg/injection, schedule: Q01DX009 (ip), vehicle: saline with Tween-80
[14] = dose: 200.0 mg/kg/injection, schedule: Q01DX009 (ip), vehicle: Klucel (hydroxypropylcellulose) (HPC)
[15] = dose: 50.0 mg/kg/injection, schedule: Q01DX005 (ip), vehicle: Klucel (hydroxypropylcellulose) (HPC)
[16] = dose: 200.0 mg/kg/injection, schedule: Q01DX005 (ip), vehicle: saline

C[CH2][Sn]([CH2]C)([O]P(=O)(C[Si](C)(C)C)c1ccccc1)[O]P(=O)(C[Si](C)(C)C)c1ccccc1 (configuration not stated)
T/C [1]: 141 % of control [4 of 6 alive] | survivor count [1]: 3 of 6 | survivor count [2]: 0 of 6 | survivor count [3]: 0 of 6

O/N=C\c1cc2ccccc2c[n+]1Cc1ccc2ccc3cccc4ccc1c2c34
survivor count (dose: 25.0 mg/kg/injection, schedule: Q01DX005 (ip), vehicle: saline with Tween-80): 3 of 6 | survivor count [4]: 1 of 6 | survivor count [5]: 0 of 6 | survivor count [6]: 0 of 6

Cc1ccc(C2=NN(c3ccccc3)C(c3ccccc3)C2NC2CCCCC2)cc1 (configuration not stated)
survivor count [7]: 6 of 6

CC1(C)C(=O)NC(=O)c2ccccc21
survivor count [8]: 6 of 6 | survivor count [7]: 0 of 6

CC(=Nc1ccc(N(C)C)cc1)c1ccccc1
survivor count [3]: 2 of 6

COc1ccc(CC(NC(=O)NSc2ccccc2)C(=O)NC2C(CO)OC(n3cnc4c(N(C)C)ncnc43)C2O)cc1 (configuration not stated)
survivor count [5]: 6 of 6 | survivor count [6]: 6 of 6

COc1ccc2c(c1)C(=O)C1(CC2)OC1c1ccncc1 (configuration not stated)
survivor count (dose: 50.0 mg/kg/injection, schedule: Q01DX009 (ip), vehicle: Klucel (hydroxypropylcellulose) (HPC)): 6 of 6

CCCCn1cnc2c(=S)nc(N)[nH]c21
T/C [9]: 127 % of control | survivor count [9]: 6 of 6 | T/C [10]: 127 % of control

Clc1ncnc2c1ncn2C1CCCCO1 (configuration not stated)
survivor count (dose: 400.0 mg/kg/injection, schedule: Q01DX009 (ip), vehicle: other): 6 of 6

CCSC(=O)N1c2ccc(OC)cc2C=CC1C#N (configuration not stated)
T/C [11]: 127 and 130 % of control | T/C (dose: 600.0 mg/kg/injection, schedule: Q04DX003 (ip), vehicle: saline with Tween-80): 139 % of control [5 of 6 alive]

CCOC(=O)NC(=Nc1cccc(C(=O)c2ccc3nc(NC(=O)OCC)[nH]c3c2)c1)NC(=O)OCC
survivor count [1]: 6 of 6 | survivor count [2]: 6 of 6 | survivor count [3]: 6 of 6

O=P(c1ccccc1)(c1ccccc1)c1ccccc1.O=P(c1ccccc1)(c1ccccc1)c1ccccc1.O=P(c1ccccc1)(c1ccccc1)c1ccccc1.O=P(c1ccccc1)(c1ccccc1)c1ccccc1.[Ni+2].[O-][Cl+3]([O-])([O-])O
survivor count [12]: 6 of 6 | survivor count [13]: 1 of 6

Cc1cc(C)n(C(N)=NC(=O)c2ccccc2)n1
survivor count (dose: 100.0 mg/kg/injection, schedule: Q01DX009 (ip), vehicle: Klucel (hydroxypropylcellulose) (HPC)): 6 of 6 | survivor count [14]: 6 of 6

CN1CCC2(C)CC(Br)(Cc3ccccc32)C1Cl (configuration not stated)
survivor count [7]: 0 of 5

CC1(C)CC(OS(C)(=O)=O)CC(C)(C)N1O
survivor count [14]: 2 of 6

CCCOc1cc2c(cc1C(C)(C)c1ccccc1)OCO2
survivor count [6]: 6 of 6

O=S1(=O)CS(=O)(=O)OCCCO1
T/C (dose: 3.12 mg/kg/injection, schedule: Q01DX005 (ip), vehicle: Klucel (hydroxypropylcellulose) (HPC)): 136 % of control | T/C (dose: 6.25 mg/kg/injection, schedule: Q01DX005 (ip), vehicle: Klucel (hydroxypropylcellulose) (HPC)): 136 % of control | survivor count (dose: 12.5 mg/kg/injection, schedule: Q01DX005 (ip), vehicle: Klucel (hydroxypropylcellulose) (HPC)): 2 of 6 | survivor count (dose: 25.0 mg/kg/injection, schedule: Q01DX005 (ip), vehicle: Klucel (hydroxypropylcellulose) (HPC)): 0 of 6 | survivor count [15]: 0 of 5 | survivor count [8]: 0 of 5 | survivor count [7]: 0 of 5

Cc1ccc([N+](=O)[O-])c2ccccc12
survivor count (dose: 400.0 mg/kg/injection, schedule: Q01DX009 (ip), vehicle: saline with Tween-80): 3 of 6

CSc1ccc(NC(=O)ON2C(=O)c3ccccc3C2=O)cc1
survivor count (dose: 50.0 mg/kg/injection, schedule: Q01DX009 (ip), vehicle: saline with Tween-80): 6 of 6 | survivor count [12]: 6 of 6 | survivor count [13]: 4 of 6

C#CCN1CCN(C(=S)N/N=C(\C)c2ccccn2)CC1
T/C [4]: 127 % of control | survivor count [5]: 0 of 6 | survivor count [6]: 0 of 6

CC(=O)OC1CC(n2cc(C)c(=O)[nH]c2=O)OC1COP(=O)(N1CC1)N1CC1 (configuration not stated)
T/C [10]: 142 % of control

N#CC1(OC2OC(CO)C(O)C(O)C2O)C=CC(O)C1 (configuration not stated)
survivor count [16]: 1 of 6

COc1cc(/C=C/C(=O)c2ccc(OCc3ccccc3)cc2OC(C)=O)c(OC)c(OC)c1OC
survivor count (dose: 400.0 mg/kg/injection, schedule: Q01DX001 (ip), vehicle: Klucel (hydroxypropylcellulose) (HPC)): 6 of 6

Cc1cc(C)nc(NC(N)=NCCc2ccccc2)n1
survivor count [9]: 6 of 6 | survivor count [10]: 6 of 6 | survivor count [11]: 3 of 6

O=C1C(N=Nc2ccccc2)Sc2nc3ccccc3n21 (configuration not stated)
survivor count (dose: 240.0 mg/kg/injection, schedule: Q01DX005 (ip), vehicle: Klucel (hydroxypropylcellulose) (HPC)): 4 of 6

O=S(=O)(O)c1ccc2cc3nn(-c4ccc(/C=C/c5ccc(-n6nc7cc8ccc(S(=O)(=O)O)cc8cc7n6)cc5S(=O)(=O)O)c(S(=O)(=O)O)c4)nc3cc2c1
survivor count (dose: 200.0 mg/kg/injection, schedule: Q01DX009 (ip), vehicle: saline): 2 of 6

NC(=O)c1cn(C2OC(CO)C(O)C2O)c2ncnc(N)c12 (configuration not stated)
T/C (dose: 0.25 mg/kg/injection, schedule: Q01DX009 (ip), vehicle: suspension in saline): 125 % of control | T/C (dose: 0.5 mg/kg/injection, schedule: Q04DX003 (ip), vehicle: saline): 127 % of control | survivor count (dose: 1.0 mg/kg/injection, schedule: Q03HX024 (ip), vehicle: saline): 10 of 10 | T/C (dose: 1.0 mg/kg/injection, schedule: Q04DX003 (ip), vehicle: saline): 127 % of control | survivor count (dose: 2.0 mg/kg/injection, schedule: Q03HX008 (ip), vehicle: saline): 1 of 10 | survivor count (dose: 2.0 mg/kg/injection, schedule: Q03HX016 (ip), vehicle: saline): 4 of 10 | T/C (dose: 2.0 mg/kg/injection, schedule: Q04DX003 (ip), vehicle: saline): 140 % of control | survivor count (dose: 4.0 mg/kg/injection, schedule: Q01DX009 (ip), vehicle: suspension in saline): 6 of 6 | T/C (dose: 4.0 mg/kg/injection, schedule: Q04DX003 (ip), vehicle: saline): 131 % of control | survivor count (dose: 6.0 mg/kg/injection, schedule: Q04DX003 (ip), vehicle: saline): 6 of 6 | survivor count (dose: 8.0 mg/kg/injection, schedule: Q01DX009 (ip), vehicle: suspension in saline): 2 of 6 | survivor count (dose: 8.0 mg/kg/injection, schedule: Q04DX003 (ip), vehicle: saline): 10 of 10 | survivor count (dose: 9.0 mg/kg/injection, schedule: Q04DX003 (ip), vehicle: saline): 5 of 6 | survivor count (dose: 16.0 mg/kg/injection, schedule: Q01DX001 (ip), vehicle: saline): 0 of 10 | survivor count (dose: 16.0 mg/kg/injection, schedule: Q08DX002 (ip), vehicle: saline): 3 of 10

C[n+]1c2ccccc2c(Cc2ccccc2)c2ccccc21
survivor count [5]: 1 of 6 | survivor count [6]: 0 of 6

O=C1C=CC(=O)C(CC2CCCC2C2=CC(=O)C=CC2=O)=C1 (configuration not stated)
survivor count (dose: 50.0 mg/kg/injection, schedule: Q04DX002 (ip), vehicle: saline with Tween-80): 6 of 6 | survivor count (dose: 100.0 mg/kg/injection, schedule: Q04DX002 (ip), vehicle: saline with Tween-80): 3 of 6

Cc1cc(C(=O)Nc2ccc(NC3=NCCN3)cc2)c(C)cc1C(=O)Nc1ccc(NC2=NCCN2)cc1
T/C [15]: 128 [5 of 6 alive] and 137 % of control | survivor count [8]: 0 of 6 | survivor count [7]: 0 of 6

CCOC(=O)C[CH2][Sn]([Cl])([Cl])[Cl]
survivor count (dose: 400.0 mg/kg/injection, schedule: Q04DX003 (ip), vehicle: saline): 0 of 6

CC(N)C(=O)NC(Cc1ccccc1)C(=O)N1CCCC1C(=O)Nc1ccc2ccccc2c1 (configuration not stated)
survivor count [16]: 0 of 5
